At least one structure is not confirmed: it was looked up by name or label, or the drawing left a doubt.
System: Akt
Assay: SCF-induced Akt activation (Akt in vitro kinase assay, histone H2B substrate) in primary bone marrow-derived mast cells
Format: cell-based, mouse

COC[C@H]1OC(=O)c2coc3c2[C@@]1(C)C1=C(C3=O)[C@@H]2CCC(=O)[C@@]2(C)C[C@H]1OC(C)=O [wortmannin]
sensitivity of SCF-induced Akt activation to wortmannin (+/+ and loxP/loxP mast cells): wortmannin-sensitive | inhibition of SCF-induced Akt activation (Y719F/Y719F mast cells): completely inhibited

Source: patent US20030084466A1, “System and method for controlling male fertility” (priority 2000, published 2003)
